The results in this text go back to article doi:10.1101/2024.11.26.625561.

The chains behind the UniProt entries cited, without tags or fusion partners.
UniProt P41233: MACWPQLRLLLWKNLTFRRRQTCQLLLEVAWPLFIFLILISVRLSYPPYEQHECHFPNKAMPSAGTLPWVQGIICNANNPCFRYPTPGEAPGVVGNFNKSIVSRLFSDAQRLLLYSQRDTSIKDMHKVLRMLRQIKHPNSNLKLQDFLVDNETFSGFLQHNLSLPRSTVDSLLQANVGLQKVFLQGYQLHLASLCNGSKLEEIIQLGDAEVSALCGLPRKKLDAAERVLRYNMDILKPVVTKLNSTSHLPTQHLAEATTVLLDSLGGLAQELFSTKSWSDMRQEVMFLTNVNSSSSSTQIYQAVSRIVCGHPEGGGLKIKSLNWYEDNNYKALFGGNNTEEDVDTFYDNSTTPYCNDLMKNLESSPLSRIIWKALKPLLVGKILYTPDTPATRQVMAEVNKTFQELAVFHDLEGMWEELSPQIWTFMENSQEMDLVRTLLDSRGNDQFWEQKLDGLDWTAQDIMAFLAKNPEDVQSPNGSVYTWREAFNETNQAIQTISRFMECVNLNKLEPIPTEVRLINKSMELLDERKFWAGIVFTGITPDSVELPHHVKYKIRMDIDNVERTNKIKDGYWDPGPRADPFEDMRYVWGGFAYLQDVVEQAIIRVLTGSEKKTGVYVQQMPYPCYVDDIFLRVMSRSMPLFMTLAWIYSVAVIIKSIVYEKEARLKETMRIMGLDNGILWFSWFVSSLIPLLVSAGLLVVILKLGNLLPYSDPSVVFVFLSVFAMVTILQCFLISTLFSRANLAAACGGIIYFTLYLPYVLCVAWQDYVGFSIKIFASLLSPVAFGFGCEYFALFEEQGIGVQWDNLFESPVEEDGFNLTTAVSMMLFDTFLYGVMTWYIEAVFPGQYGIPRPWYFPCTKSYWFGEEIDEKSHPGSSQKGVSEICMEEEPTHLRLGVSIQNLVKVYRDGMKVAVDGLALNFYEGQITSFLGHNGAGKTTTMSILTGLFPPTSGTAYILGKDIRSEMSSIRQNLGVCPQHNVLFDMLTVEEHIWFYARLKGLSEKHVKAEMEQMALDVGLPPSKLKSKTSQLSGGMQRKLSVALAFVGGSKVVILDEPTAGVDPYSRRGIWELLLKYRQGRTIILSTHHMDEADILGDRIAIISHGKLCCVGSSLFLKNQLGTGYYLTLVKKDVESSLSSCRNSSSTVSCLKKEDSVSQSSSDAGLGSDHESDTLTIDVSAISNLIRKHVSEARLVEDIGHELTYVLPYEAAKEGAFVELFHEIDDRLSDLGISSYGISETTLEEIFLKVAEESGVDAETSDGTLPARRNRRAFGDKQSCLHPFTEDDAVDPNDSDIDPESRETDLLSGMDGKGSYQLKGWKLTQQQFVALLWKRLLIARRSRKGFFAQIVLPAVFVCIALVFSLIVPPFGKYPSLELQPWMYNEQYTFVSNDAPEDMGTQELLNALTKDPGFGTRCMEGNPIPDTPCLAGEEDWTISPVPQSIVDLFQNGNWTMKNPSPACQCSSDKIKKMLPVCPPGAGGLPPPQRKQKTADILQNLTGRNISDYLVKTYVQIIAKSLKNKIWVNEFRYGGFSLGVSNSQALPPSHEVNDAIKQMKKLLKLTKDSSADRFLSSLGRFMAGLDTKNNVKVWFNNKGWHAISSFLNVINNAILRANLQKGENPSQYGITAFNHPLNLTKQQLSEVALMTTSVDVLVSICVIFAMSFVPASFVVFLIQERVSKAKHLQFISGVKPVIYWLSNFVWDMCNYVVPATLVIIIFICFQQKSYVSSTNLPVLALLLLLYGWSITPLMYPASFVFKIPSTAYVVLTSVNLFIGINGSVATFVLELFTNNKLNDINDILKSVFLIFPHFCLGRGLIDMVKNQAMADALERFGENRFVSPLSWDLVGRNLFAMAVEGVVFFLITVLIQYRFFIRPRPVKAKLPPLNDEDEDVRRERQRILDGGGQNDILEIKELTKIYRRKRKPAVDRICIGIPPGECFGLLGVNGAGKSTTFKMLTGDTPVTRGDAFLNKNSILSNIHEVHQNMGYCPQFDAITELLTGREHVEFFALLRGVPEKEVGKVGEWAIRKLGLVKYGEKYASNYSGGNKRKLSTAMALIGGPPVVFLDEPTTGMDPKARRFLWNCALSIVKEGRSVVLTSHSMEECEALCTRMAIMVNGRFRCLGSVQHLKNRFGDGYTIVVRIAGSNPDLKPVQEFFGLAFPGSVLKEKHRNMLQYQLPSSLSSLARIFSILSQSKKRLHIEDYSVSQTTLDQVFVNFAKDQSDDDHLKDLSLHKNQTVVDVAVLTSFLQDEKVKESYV

In the assay the target is T1, CEACAM1 (UniProt P31809).
T1 sequence: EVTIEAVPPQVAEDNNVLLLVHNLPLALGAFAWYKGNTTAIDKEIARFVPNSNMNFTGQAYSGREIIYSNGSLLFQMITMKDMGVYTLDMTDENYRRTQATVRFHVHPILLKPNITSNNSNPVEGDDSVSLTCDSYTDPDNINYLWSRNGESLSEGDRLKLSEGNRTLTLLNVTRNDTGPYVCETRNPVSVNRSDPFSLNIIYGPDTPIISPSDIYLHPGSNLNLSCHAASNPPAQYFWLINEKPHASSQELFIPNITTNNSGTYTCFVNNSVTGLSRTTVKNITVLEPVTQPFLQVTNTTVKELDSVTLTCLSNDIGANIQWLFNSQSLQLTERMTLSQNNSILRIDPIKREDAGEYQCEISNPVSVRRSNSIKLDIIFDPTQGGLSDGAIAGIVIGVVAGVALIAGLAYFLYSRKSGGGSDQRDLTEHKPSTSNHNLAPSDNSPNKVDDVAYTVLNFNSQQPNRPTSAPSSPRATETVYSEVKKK
Kind of assay: co-IP.

No constants are given. Whether binding was seen depends on the method and setting. In cells and extracts the contact can be indirect. Some binding calls cover weakened binding; strength is not graded here.

As for ABCA1 (from UniProt P41233 1-2261), the binding entry is recorded as “binds”.

B1: Pygm (protein, UniProt Q9WUB3 1-842)
chain: MSRPLSDQDKRKQISVRGLAGVENVSELKKNFNRHLHFTLVKDRNVATPRDYYFALAHTVRDHLVGRWIRTQQHYYEKDPKRIYYLSLEFYMGRTLQNTMVNLALENACDEATYQLGLDMEELEEIEEDAGLGNGGLGRLAACFLDSMATLGLAAYGYGIRYEFGIFNQKICGGWQMEEADDWLRYGNPWEKARPEFTLPVHFYGRVEHTSQGAKWVDTQVVLAMPYDTPVPGYRNNVVNTMRLWSAKAPNDFNLKDFNVGGYIQAVLDRNLAENISRVLYPNDNFFEGKELRLKQEYFVVAATLQDIIRRFKSSKFGSRDPVRTNFDAFPDKVAIQLNDTHPSLAIPELMRILVDLERLDWDKAWDVTVKTCAYTNHTVLPEALERWPVHLMETLLPRHLQIIYEINQRFLNRVAAAFPGDVDRLRRMSLVEEGAVKRINMAHLCIAGSHAVNGVARIHSEILKKTIFKDFYELEPHKFQNKTNGITPRRWLVLCNPGLAEVIAERIGEDYISDLDQLRKLLSYVDDEAFIRDVAKVKQENKLKFSAYLEREYKVHINPNSLFDVQVKRIHEYKRQLLNCLHIITLYNRIKREPNRFMVPRTIMIGGKAAPGYHMAKMIIKLITAIGDVVNHDPAVGDRLRVIFLENYRVSLAEKVIPAADLSEQISTAGTEASGTGNMKFMLNGALTIGTMDGANVEMAEEAGEENFFIFGMRVEDVERLDQRGYNAQEYYDRIPELRQIIEQLSSGFFSPKQPDLFKDIVNMLMHHDRFKVFADYEEYIKCQDKVSELYKNPREWTRMVIRNIATSGKFSSDRTIAQYAREIWGVEPSRQRLPAPDEKI
For the molecule B1, the binding entry is “no binding”.
